Measurements from the supplement of paper PMC11006884.
This list holds what a sample rich in targets with a hit left over. Single values of this set are uncertain. Only a part is listed here, and it is no random draw.

Amino acid sequences for entries named in this document (tags omitted). A change or cut given only in a name is not applied to a line headed by its entry.
UniProt Q96F86: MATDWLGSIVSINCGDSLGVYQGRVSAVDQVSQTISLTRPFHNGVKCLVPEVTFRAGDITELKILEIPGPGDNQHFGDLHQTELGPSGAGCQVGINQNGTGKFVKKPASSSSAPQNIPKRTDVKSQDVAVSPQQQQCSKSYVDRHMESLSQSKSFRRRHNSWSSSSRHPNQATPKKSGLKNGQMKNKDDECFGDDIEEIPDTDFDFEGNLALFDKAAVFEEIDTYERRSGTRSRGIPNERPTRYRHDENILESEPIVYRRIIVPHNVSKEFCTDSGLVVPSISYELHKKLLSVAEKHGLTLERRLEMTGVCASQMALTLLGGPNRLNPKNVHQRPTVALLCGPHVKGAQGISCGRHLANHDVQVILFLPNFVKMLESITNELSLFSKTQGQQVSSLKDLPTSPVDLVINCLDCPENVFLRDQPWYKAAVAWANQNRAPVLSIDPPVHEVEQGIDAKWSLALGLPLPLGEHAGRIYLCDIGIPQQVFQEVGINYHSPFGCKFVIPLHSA
UniProt Q92841: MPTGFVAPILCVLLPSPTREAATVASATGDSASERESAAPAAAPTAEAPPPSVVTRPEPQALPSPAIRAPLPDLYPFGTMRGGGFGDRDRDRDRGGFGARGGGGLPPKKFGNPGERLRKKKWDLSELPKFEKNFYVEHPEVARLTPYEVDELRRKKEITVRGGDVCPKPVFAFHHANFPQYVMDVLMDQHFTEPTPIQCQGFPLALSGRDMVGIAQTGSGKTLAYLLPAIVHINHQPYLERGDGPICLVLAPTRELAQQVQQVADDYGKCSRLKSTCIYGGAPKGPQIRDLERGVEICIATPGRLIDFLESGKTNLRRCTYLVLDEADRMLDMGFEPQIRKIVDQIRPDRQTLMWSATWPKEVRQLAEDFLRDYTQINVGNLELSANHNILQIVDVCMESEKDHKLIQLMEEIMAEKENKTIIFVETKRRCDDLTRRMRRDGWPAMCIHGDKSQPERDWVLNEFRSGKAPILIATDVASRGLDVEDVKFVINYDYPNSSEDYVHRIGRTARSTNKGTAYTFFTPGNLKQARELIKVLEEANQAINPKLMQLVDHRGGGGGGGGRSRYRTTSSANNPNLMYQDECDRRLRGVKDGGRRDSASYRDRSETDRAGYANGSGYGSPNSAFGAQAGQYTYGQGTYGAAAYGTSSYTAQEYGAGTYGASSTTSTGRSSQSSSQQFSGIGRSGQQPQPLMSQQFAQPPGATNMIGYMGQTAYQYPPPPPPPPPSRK
UniProt Q93008, whole entry, looked up: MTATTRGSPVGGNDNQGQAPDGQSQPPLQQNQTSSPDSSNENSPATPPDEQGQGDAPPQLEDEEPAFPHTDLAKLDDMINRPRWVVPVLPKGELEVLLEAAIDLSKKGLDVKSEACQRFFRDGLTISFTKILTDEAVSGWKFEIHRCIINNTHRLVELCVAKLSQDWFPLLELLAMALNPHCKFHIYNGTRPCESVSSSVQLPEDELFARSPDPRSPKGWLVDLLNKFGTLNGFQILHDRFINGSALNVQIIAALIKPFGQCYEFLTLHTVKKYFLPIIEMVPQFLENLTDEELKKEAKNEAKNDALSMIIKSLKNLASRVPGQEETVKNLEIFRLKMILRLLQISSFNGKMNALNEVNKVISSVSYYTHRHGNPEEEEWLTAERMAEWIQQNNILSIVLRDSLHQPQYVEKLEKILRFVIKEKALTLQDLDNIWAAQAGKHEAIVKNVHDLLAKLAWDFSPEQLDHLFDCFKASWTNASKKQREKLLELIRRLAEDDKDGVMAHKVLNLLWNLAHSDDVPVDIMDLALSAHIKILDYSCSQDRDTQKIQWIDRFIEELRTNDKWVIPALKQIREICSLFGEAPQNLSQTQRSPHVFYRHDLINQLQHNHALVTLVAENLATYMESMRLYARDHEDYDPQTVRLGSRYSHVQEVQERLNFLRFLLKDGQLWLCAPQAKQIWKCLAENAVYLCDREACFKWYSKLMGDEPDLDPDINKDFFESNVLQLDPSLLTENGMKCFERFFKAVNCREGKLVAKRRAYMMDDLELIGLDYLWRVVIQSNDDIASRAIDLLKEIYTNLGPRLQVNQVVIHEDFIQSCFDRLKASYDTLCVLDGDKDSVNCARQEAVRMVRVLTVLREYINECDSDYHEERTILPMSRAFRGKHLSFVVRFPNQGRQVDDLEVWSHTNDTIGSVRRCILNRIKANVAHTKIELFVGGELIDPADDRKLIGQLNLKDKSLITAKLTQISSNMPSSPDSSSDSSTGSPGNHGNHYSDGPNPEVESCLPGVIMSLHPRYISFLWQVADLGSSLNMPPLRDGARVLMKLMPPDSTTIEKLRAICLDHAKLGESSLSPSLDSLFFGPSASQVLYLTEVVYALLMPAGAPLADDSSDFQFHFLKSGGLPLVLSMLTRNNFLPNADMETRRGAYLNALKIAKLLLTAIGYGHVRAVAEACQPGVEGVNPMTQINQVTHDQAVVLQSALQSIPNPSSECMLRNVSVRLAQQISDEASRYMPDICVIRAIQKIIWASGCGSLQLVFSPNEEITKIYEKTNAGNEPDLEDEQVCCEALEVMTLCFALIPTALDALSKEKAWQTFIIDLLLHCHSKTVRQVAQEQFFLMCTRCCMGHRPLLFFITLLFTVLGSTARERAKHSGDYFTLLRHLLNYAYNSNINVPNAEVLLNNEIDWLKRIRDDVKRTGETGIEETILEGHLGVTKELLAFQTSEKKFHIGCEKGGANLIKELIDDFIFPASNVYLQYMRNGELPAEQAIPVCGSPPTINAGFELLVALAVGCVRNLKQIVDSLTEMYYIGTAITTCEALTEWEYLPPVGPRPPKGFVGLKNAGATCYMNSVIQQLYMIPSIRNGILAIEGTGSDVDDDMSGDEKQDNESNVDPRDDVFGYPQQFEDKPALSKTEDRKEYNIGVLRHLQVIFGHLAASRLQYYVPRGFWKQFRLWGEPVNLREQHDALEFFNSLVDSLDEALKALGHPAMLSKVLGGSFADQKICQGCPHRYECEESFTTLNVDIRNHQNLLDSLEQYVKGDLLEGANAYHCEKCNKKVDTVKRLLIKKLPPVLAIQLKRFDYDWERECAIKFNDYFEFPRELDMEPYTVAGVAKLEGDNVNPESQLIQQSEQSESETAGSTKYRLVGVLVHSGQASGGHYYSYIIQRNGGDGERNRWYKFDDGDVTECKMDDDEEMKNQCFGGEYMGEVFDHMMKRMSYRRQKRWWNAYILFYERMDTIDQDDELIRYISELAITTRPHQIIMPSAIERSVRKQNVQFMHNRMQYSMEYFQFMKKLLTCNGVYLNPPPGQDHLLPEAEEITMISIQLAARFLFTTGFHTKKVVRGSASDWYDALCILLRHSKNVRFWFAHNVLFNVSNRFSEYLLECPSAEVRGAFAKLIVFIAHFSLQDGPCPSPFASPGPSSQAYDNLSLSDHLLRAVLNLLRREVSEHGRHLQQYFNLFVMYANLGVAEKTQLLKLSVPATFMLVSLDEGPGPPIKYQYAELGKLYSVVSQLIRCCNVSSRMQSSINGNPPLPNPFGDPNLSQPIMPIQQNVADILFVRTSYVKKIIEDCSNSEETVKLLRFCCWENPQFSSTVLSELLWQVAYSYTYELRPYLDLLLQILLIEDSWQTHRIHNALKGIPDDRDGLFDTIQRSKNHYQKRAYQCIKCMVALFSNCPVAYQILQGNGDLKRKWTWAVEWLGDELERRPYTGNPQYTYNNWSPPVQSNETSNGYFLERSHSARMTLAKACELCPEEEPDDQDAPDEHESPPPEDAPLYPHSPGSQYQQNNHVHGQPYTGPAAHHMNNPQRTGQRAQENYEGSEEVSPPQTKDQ
UniProt Q92804: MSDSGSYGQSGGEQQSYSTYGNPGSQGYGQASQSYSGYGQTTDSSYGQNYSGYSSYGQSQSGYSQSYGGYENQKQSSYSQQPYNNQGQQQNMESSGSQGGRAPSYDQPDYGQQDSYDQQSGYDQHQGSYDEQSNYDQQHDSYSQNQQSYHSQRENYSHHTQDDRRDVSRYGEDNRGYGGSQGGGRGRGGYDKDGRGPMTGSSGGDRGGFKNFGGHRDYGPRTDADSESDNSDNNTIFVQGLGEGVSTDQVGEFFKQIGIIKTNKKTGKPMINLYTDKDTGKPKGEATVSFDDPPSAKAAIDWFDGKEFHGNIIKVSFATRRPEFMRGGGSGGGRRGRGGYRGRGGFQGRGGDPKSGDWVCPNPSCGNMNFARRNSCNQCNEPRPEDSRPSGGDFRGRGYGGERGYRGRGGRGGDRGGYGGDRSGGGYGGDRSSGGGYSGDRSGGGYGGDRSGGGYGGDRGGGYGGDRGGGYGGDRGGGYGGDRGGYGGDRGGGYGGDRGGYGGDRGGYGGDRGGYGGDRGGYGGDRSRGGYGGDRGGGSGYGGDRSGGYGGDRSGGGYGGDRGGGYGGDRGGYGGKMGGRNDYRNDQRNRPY
UniProt Q92615, whole entry, looked up: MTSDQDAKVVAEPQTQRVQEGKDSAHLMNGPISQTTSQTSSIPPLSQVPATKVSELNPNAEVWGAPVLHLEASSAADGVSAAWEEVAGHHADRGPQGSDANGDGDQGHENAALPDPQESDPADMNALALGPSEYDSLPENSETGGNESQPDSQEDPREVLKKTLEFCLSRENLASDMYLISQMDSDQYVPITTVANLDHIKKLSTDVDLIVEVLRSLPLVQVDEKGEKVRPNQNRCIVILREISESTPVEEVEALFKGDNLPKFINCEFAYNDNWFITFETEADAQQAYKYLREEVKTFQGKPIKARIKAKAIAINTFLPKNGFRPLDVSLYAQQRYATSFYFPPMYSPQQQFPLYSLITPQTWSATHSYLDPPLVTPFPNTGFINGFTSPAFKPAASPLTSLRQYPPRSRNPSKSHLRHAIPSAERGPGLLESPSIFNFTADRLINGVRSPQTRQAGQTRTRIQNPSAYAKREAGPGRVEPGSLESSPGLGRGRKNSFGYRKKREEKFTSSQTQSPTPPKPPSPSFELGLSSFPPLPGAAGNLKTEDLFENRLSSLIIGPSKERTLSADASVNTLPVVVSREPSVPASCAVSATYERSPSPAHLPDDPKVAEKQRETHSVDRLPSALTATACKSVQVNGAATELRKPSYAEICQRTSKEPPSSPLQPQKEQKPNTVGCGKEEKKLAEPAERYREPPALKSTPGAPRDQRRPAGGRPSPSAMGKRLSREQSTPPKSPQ
UniProt Q969T7: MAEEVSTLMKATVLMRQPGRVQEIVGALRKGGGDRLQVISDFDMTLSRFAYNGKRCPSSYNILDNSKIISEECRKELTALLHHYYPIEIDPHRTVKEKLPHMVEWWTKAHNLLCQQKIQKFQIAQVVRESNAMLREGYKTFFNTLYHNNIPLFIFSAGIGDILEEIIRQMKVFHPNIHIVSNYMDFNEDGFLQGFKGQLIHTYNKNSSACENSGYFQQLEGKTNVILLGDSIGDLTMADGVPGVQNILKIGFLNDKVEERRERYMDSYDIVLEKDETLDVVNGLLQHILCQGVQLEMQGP
UniProt Q92785, whole entry, looked up: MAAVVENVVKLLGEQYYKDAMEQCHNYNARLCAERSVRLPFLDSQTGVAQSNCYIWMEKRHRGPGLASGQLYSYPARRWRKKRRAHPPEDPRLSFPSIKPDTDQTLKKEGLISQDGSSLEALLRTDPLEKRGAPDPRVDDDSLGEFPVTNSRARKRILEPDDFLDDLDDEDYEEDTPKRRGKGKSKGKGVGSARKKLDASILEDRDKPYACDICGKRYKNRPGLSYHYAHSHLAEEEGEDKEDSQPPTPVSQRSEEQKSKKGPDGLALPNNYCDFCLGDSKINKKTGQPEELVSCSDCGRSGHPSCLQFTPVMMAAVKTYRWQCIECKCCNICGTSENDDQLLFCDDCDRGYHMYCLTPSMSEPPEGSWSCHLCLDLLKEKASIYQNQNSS
UniProt Q96GQ7: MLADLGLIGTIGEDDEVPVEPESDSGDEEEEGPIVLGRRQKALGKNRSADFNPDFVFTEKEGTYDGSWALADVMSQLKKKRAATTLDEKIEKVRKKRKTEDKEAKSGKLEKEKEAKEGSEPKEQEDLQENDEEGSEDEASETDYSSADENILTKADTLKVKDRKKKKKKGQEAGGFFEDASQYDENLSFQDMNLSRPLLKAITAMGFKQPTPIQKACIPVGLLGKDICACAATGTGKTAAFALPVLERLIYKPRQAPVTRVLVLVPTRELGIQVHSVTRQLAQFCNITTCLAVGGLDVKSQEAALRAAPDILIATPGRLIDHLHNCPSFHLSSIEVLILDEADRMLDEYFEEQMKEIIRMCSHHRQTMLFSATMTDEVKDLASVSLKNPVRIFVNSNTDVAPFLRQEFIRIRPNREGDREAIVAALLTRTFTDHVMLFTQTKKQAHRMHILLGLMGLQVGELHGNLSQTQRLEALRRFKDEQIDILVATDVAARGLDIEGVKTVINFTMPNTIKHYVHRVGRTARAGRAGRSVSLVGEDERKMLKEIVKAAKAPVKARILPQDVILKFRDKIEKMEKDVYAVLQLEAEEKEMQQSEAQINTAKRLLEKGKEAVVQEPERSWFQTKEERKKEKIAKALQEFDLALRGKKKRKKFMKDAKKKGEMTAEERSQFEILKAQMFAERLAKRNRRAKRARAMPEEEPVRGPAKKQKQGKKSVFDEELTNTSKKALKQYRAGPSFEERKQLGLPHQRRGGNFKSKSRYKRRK

Compound: COC(=O)/C=C/c1ccccc1 [methyl cinnamate]
Experiment: log2 ratio of iodoacetamide-alkyne labeling of the cysteine site, DMSO over compound (competition); higher = stronger covalent engagement of the cysteine by the compound, active = 1 or more
Settings: 500 µM; treatment time 1 h; system: HEK293T cell lysate
In short: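 HEK293T lysate (2 mg/mL) was treated with DMSO or electrophile (500 µM, 1 h, ambient temperature), then iodoacetamide alkyne (1 h), clicked to sCIP-TMT reagents, pooled, trypsin-digested overnight at 37 °C, streptavidin-enriched and acid-eluted. Peptides were run on Orbitrap Eclipse LC-MS/MS with FAIMS and quantified in FragPipe. The log2 competition ratio per cysteine is mean control-channel over mean compound-channel reporter intensity. Duplicate channels and three replicates were used, and cysteines quantified in only one replicate were excluded.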

log2 ratio of iodoacetamide-alkyne labeling, inactive:
LPP C465 (UniProt Q93052) 0.0367
TMEM131 C1214 (UniProt Q92545) -0.154
OTUD5 C519 (UniProt Q96G74) 0.101
MED12 C1006 (UniProt Q93074) 0.296
EDC3 C137 (UniProt Q96F86) 0.491
MMAB C132 (UniProt Q96EY8) -0.118
DPF1 C149 (UniProt Q92782) -0.00399
TONSL C762 (UniProt Q96HA7) 0.328
UniProt Q92879_C61 0.129
NRBF2 C126 (UniProt Q96F24) 0.307
UniProt Q92841_C584 0.176
GBF1 C613 (UniProt Q92538) 0.419
USP9X C1566 (UniProt Q93008) 0.146
FMC1 C68 (UniProt Q96HJ9) 0.0904
CCDC47 C214 (UniProt Q96A33) 0.393
UniProt Q92616_C36 0.285
TAF15 C365 (UniProt Q92804) 0.0886
PTCD3 C642 (UniProt Q96EY7) 0.278
UPF1 C531 (UniProt Q92900) -0.172
AKAP1 C389 (UniProt Q92667) 0.59
ZNF503 C219 (UniProt Q96F45) 0.341
ZNF428 C96 (UniProt Q96B54) 0.251
UniProt Q92615_C590 0.272
UniProt Q92841_C298 0.203
GTPBP3 C489 (UniProt Q969Y2) -0.223
UniProt Q92888_C892 -0.433
UniProt Q96C57_C161 0.571
NT5C3B C210 (UniProt Q969T7) 0.579
USP9X C673 (UniProt Q93008) 0.195
DPF2 C298 (UniProt Q92785) 0.0738
HSPH1 C34 (UniProt Q92598) 0.132
RPL36AL C88 (UniProt Q969Q0) 0.354
SNF8 C72 (UniProt Q96H20) 0.3
UniProt Q92616_C648 0.0241
DDX27 C259 (UniProt Q96GQ7) 0.169
ANP32B C114 (UniProt Q92688) -0.024
ARHGEF2 C383 (UniProt Q92974) 0.00267

Nine consecutive entries already listed, quoted:
log2 ratio of iodoacetamide-alkyne labeling, inactive:
GTPBP3 C489 (UniProt Q969Y2) -0.223
UniProt Q92888_C892 -0.433
UniProt Q96C57_C161 0.571
NT5C3B C210 (UniProt Q969T7) 0.579
USP9X C673 (UniProt Q93008) 0.195
DPF2 C298 (UniProt Q92785) 0.0738
HSPH1 C34 (UniProt Q92598) 0.132
RPL36AL C88 (UniProt Q969Q0) 0.354
SNF8 C72 (UniProt Q96H20) 0.3
